# Measured values from publication doi:10.1101/2024.03.15.585280.
# By UniProt entry, the sequences of proteins in these tests, tags left out.
# UniProt P49597: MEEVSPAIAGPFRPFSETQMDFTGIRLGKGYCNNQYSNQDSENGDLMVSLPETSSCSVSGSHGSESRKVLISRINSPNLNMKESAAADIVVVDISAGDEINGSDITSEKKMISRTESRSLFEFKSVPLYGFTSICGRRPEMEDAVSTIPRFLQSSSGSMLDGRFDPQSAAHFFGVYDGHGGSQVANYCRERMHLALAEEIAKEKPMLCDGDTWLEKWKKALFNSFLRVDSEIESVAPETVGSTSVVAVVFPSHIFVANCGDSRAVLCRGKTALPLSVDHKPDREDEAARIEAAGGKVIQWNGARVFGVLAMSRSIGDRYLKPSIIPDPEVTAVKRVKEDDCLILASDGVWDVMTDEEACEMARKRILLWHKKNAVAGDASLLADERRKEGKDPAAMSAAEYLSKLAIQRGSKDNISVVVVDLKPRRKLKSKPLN
# No constants are given. Whether binding was seen depends on the method and setting. Some results given as binding are weak or reduced against the parent protein; the word gives no strength. Sequences can lack the tags named with a protein.
# Target: T1, AtOST1-BD (Arabidopsis) (UniProt Q940H6)
# T1 sequence: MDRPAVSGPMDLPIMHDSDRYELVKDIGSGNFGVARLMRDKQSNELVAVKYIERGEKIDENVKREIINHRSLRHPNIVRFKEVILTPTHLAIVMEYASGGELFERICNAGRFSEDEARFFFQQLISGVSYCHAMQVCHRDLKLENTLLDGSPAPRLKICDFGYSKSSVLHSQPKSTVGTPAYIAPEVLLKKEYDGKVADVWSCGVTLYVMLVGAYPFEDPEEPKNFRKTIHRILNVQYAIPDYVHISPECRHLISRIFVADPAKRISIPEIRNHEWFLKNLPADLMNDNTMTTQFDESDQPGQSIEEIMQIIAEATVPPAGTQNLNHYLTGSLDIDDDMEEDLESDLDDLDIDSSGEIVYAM
# Assay: two-hybrid
substance,measurement,value
AtABI1-AD (from UniProt P49597 1-434) (enzyme),binding,binds
